Experimental findings from paper PMC4789793, “Noggin4 is a long-range inhibitor of Wnt8 signalling that regulates head development in Xenopus laevis” (Scientific Reports, 2016) are described below.

The chains behind the UniProt entries cited, without tags or fusion partners. Residues count along the entry.
UniProt O93274, residues 24-581: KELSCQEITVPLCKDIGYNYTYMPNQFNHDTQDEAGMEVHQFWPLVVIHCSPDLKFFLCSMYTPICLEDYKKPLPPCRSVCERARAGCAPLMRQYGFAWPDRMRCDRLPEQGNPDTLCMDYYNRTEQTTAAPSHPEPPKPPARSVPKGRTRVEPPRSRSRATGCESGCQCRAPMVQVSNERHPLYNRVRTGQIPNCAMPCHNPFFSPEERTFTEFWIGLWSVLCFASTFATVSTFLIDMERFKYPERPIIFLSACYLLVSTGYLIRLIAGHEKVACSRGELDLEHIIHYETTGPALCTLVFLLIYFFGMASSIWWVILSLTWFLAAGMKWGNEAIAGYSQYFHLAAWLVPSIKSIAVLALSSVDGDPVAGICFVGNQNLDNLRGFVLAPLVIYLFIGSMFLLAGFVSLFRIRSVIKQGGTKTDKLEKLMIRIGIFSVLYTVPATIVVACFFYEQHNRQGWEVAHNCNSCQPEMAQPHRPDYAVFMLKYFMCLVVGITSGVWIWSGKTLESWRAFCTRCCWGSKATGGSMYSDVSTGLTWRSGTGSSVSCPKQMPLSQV

Assay [1] concerns the target T1, Flag-Wnt8 (Xenopus laevis) (UniProt P28026).
T1 sequence: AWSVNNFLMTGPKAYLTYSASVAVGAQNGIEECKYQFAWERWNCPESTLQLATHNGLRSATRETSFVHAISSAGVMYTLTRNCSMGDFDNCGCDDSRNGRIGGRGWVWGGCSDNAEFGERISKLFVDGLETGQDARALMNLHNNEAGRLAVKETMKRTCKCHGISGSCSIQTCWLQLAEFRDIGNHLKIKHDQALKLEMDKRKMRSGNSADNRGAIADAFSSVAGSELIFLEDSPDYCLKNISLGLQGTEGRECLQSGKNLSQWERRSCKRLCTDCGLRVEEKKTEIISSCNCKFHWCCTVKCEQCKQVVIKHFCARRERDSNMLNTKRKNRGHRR
Description: co-IP; crude extracts of mid-gastrula embryos injected at the 2-cell stage with Noggin4 and Wnt8 mRNA, alone or with increasing amounts of Frizzled8 mRNA.

The target of assay [2] is T2, Myc-Noggin1 (Xenopus laevis) (UniProt P49011).
T2 sequence: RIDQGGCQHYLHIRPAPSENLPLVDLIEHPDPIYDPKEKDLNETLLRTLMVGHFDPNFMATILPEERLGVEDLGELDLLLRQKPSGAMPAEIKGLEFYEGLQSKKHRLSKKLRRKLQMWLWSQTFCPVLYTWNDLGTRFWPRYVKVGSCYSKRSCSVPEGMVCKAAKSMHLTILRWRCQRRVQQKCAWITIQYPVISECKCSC
Description: co-IP; Myc-Noggin from conditioned medium of dissociated embryos bound on anti-MYC affinity gel and washed; concentrated conditioned medium with the Flag-tagged protein added, 4 °C overnight, CMFM + IP additives (0.1% NP40, glutathione); eluted with c-MYC peptide, Western blot; only the target purified. Background: Immunoblotting shows a protein as a band on a membrane.

These are yes or no findings as the source states them, for the method shown. Binding seen in cells or lysates may run through a third protein. Some entries that bind do so weakly or less than the wild type. Where a sequence is shown, tags or fusion partners need not be part of it.

In the case of “Frizzled8 (from UniProt O93274 24-581) (receptor)”, the binding result in assay [1] is recorded as “binds”.

B1: Flag-BMP4 (ligand, UniProt P30885 288-401)
chain: SPKQQRPRKKNKHCRRHSLYVDFSDVGWNDWIVAPPGYQAFYCHGDCPFPLADHLNSTNHAIVQTLVNSVNSSIPKACCVPTELSAISMLYLDEYDKVVLKNYQEMVVEGCGCR
Take B1: in assay [2], the binding entry is reported as “binds”.
